Fewer than 10 of roughly 1,800 compounds were called active. Another 16% or so got no clear call; they are omitted.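 How the source made its calls: active means compound lowering the normal-ribosome reporter at least twice as much as the humanized-ribosome reporter, growth loss under a set limit; inconclusive means no clear call, values can overlap the other calls; inactive means the rest.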 This is a selection; strong and weak results do not stand in their true shares. Entries with a potency or affinity are not part of this list.

The experiment can be described thus: growth inhibition of wild-type GFP E. coli versus G2058-humanized strain, dose response, G2058 mutant RFP vs wild-type GFP, cherry-pick, two tests (AID 1035470). The note with it: E. coli WT-GFP vs G2058-humanized RFP, fluorescence, 24 h; at 50 µM (top of the series).
Take `CC(=O)OC1N=C(c2ccccc2Cl)c2cc(Br)ccc2NC1=O` (stereo not given): the activity change, negative = inhibition was inactive: -22.6.

In the case of `CN1CCC(c2c[nH]c3ccccc23)C1` (stereo not given), the activity change, negative = inhibition is inactive: -6.44.

Take `Cc1c(C(=O)Nc2ccccc2)c2cc(O)ccc2n1Cc1ccccc1`: the activity change, negative = inhibition was inactive: -6.47.

Consider `O=[N+]([O-])c1ccc(N2CCOCC2)c2c1no[n+]2[O-]`, for which the activity change, negative = inhibition was inactive: -8.5.

Regarding `Oc1ccc2c3c1OC1c4oc5ccccc5c4C[C@@]4(O)[C@@H](C2)N(CC2CC2)CC[C@]314` (stereo not given in full), the activity change, negative = inhibition is inactive: -14.5.

Regarding `Oc1c(Br)cc(Br)cc1Br`, the activity change, negative = inhibition was inactive: -9.83.

`CC(C)CCn1c(N)c(C(=O)NCc2cccs2)c2nc3ccccc3nc21`: the activity change, negative = inhibition was inactive: 22.2.

Consider `CC(C)Cc1nc(N2CCNCC2)c(C#N)c2c1CCC2`, for which the activity change, negative = inhibition is inactive: -9.91.

Regarding `O=C1CC(=O)N(Cc2ccccc2)C(=O)N1CCCCCCN1C(=O)CC(=O)N(Cc2ccccc2)C1=O`, the activity change, negative = inhibition was inactive: 3.66.

Take `c1ccc(Nc2ccc3ccccc3c2)cc1`: the activity change, negative = inhibition is inactive: -12.3.

The values above are taken from PubChem BioAssay AID1035470 (Broad Institute, 2014).
